These are yes or no findings as the source states them, for the method shown. Binding can be weak; no strength is given. Where a sequence is shown, tags or fusion partners need not be part of it.
B1: AtTCP1 fused to the Gal4 activation domain (protein, UniProt Q9FYG7 1-359)
chain: MSSSTNDYNDGNNNGVYPLSLYLSSLSGHQDIIHNPYNHQLKASPGHMVSAVPESLIDYMAFKSNNVVNQQGFEFPEVSKEIKKVVKKDRHSKIQTAQGIRDRRVRLSIGIARQFFDLQDMLGFDKASKTLDWLLKKSRKAIKEVVQAKNLNNDDEDFGNIGGDVEQEEEKEEDDNGDKSFVYGLSPGYGEEEVVCEATKAGIRKKKSELRNISSKGLGAKARGKAKERTKEMMAYDNPETASDITQSEIMDPFKRSIVFNEGEDMTHLFYKEPIEEFDNQESILTNMTLPTKMGQSYNQNNGILMLVDQSSSSNYNTFLPQNLDYSYDQNPFHDQTLYVVTDKNFPKGKVWIQDSFVN
B2: AtTCP18 fused to the Gal4 activation domain (protein, UniProt A1YKT1 1-433)
chain: MNNNIFSTTTTINDDYMLFPYNDHYSSQPLLPFSPSSSINDILIHSTSNTSNNHLDHHHQFQQPSPFSHFEFAPDCALLTSFHPENNGHDDNQTIPNDNHHPSLHFPLNNTIVEQPTEPSETINLIEDSQRISTSQDPKMKKAKKPSRTDRHSKIKTAKGTRDRRMRLSLDVAKELFGLQDMLGFDKASKTVEWLLTQAKPEIIKIATTLSHHGCFSSGDESHIRPVLGSMDTSSDLCELASMWTVDDRGSNTNTTETRGNKVDGRSMRGKRKRPEPRTPILKKLSKEERAKARERAKGRTMEKMMMKMKGRSQLVKVVEEDAHDHGEIIKNNNRSQVNRSSFEMTHCEDKIEELCKNDRFAVCNEFIMNKKDHISNESYDLVNYKPNSSFPVINHHRSQGAANSIEQHQFTDLHYSFGAKPRDLMHNYQNMY
B3: AtTCP24 fused to the Gal4 activation domain (protein, UniProt Q9C758 1-324)
chain: MEVDEDIELQKHQEQQSRKLQRFSEDNTGLMRNWNNPSSRIIRVSRASGGKDRHSKVLTSKGLRDRRIRLSVATAIQFYDLQDRLGFDQPSKAVEWLINAASDSITDLPLLNTNFDHLDQNQNQTKSACSSGTSESSLLSLSRTEIRGKARERARERTAKDRDKDLQNAHSSFTQLLTGGFDQQPSNRNWTGGSDCFNPVQLQIPNSSSQEPMNHPFSFVPDYNFGISSSSSAINGGYSSRGTLQSNSQSLFLNNNNNITQRSSISSSSSSSSPMDSQSISFFMATPPPLDHHNHQLPETFDGRLYLYYGEGNRSSDDKAKERR
B4: AtTCP6 fused to the Gal4 activation domain (protein, UniProt Q9FLM6 1-243)
chain: MVMEPKKNQNLPSFLNPSRQNQDNDKKRKQTEVKGFDIVVGEKRKKKENEEEDQEIQILYEKEKKKPNKDRHLKVEGRGRRVRLPPLCAARIYQLTKELGHKSDGETLEWLLQHAEPSILSATVNGIKPTESVVSQPPLTADLMICHSVEEASRTQMEANGLWRNETGQTIGGFDLNYGIGFDFNGVPEIGFGDNQTPGLELRLSQVGVLNPQVFQQMGKEQFRVLHHHSHEDQQQSAEENGS
B5: AtTCP19 fused to the Gal4 activation domain (protein, UniProt Q9LT89 1-293)
chain: MESNHEGNAIQVIDQVTTMTHLSDPNPKTKPGMMLMKQEDGYLQPVKTKPAPKRPTSKDRHTKVEGRGRRIRMPAGCAARVFQLTRELGHKSDGETIRWLLERAEPAIIEATGTGTVPAIAVSVNGTLKIPTSSPVLNDGGRDGDGDLIKKRRKRNCTSDFVDVNDSCHSSVTSGLAPITASNYGVNILNVNTQGFVPFWPMGMGTAFVTGGPDQMGQMWAIPTVATAPFLNVGARPVSSYVSNASDAEAEMETSGGGTTQPLRDFSLEIYDKRELQFLGGSGNSSPSSCHET
B6: AtTCP2 fused to the Gal4 activation domain (protein, UniProt Q93V43 1-365)
chain: MIGDLMKNNNNGDVVDNEVNNRLSRWHHNSSRIIRVSRASGGKDRHSKVLTSKGPRDRRVRLSVSTALQFYDLQDRLGYDQPSKAVEWLIKAAEDSISELPSLNNTHFPTDDENHQNQTLTTVAANSLSKSACSSNSDTSKNSSGLSLSRSELRDKARERARERTAKETKERDHNHTSFTDLLNSGSDPVNSNRQWMASAPSSSPMEYFSSGLILGSGQQTHFPISTNSHPFSSISDHHHHHPHHQHQEFSFVPDHLISPAESNGGAFNLDFNMSTPSGAGAAVSAASGGGFSGFNRGTLQSNSTNQHQSFLANLQRFPTSESGGGPQFLFGALPAENHHHNHQFQLYYENGCRNSSEHKGKGKN
B7: AtTCP5 fused to the Gal4 activation domain (protein, UniProt Q9FME3 1-360)
chain: MRSGECDEEEIQAKQERDQNQNHQVNLNHMLQQQQPSSVSSSRQWTSAFRNPRIVRVSRTFGGKDRHSKVCTVRGLRDRRIRLSVPTAIQLYDLQDRLGLSQPSKVIDWLLEAAKDDVDKLPPLQFPHGFNQMYPNLIFGNSGFGESPSSTTSTTFPGTNLGFLENWDLGGSSRTRARLTDTTTTQRESFDLDKGKWIKNDENSNQDHQGFNTNHQQQFPLTNPYNNTSAYYNLGHLQQSLDQSGNNVTVAISNVAANNNNNLNLHPPSSSAGDGSQLFFGPTPPAMSSLFPTYPSFLGASHHHHVVDGAGHLQLFSSNSNTASQQHMMPGNTSLIRPFHHLMSSNHDTDHHSSDNESDS
B8: AtTCP12 fused to the Gal4 activation domain (protein, UniProt A0AQW4 1-356)
chain: MFPSLDTNGYDLFDPFIPHQTTMFPSFITHIQSPNSHHHYSSPSFPFSSDFLESFDESFLINQFLLQQQDVAANVVESPWKFCKKLELKKKNEKCVDGSTSQEVQWRRTVKKRDRHSKICTAQGPRDRRMRLSLQIARKFFDLQDMLGFDKASKTIEWLFSKSKTSIKQLKERVAASEGGGKDEHLQVDEKEKDETLKLRVSKRRTKTMESSFKTKESRERARKRARERTMAKMKMRLFETSETISDPHQETREIKITNGVQLLEKENKEQEWSNTNDVHMVEYQMDSVSIIEKFLGLTSDSSSSSIFGDSEECYTSLSSVRGMSTPREHNTTSIATVDEEKSPISSFSLYDYLCY
B9: AtTCP13 fused to the Gal4 activation domain (protein, UniProt Q9S7W5 1-355)
chain: MNIVSWKDANDEVAGGATTRREREVKEDQEETEVRATSGKTVIKKQPTSISSSSSSWMKSKDPRIVRVSRAFGGKDRHSKVCTLRGLRDRRVRLSVPTAIQLYDLQERLGVDQPSKAVDWLLDAAKEEIDELPPLPISPENFSIFNHHQSFLNLGQRPGQDPTQLGFKINGCVQKSTTTSREENDREKGENDVVYTNNHHVGSYGTYHNLEHHHHHHQHLSLQADYHSHQLHSLVPFPSQILVCPMTTSPTTTTIQSLFPSSSSAGSGTMETLDPRQMVSHFQMPLMGNSSSSSSQNISTLYSLLHGSSSNNGGRDIDNRMSSVQFNRTNSTTTANMSRHLGSERCTSRGSDHHM
B10: AtTCP17 fused to the Gal4 activation domain (protein, UniProt Q9LEZ9 1-242)
chain: MGIKKEDQKSSLSLLTQRWNNPRIVRVSRAFGGKDRHSKVCTVRGLRDRRIRLSVMTAIQVYDLQERLGLSQPSKVIDWLLEVAKNDVDLLPPLQFPPGFHQLNPNLTGLGESFPGVFDLGRTQREALDLEKRKWVNLDHVFDHIDHHNHFSNSIQSNKLYFPTITSSSSSYHYNLGHLQQSLLDQSGNVTVAFSNNYNNNNLNPPAAETMSSLFPTRYPSFLGGGQLQLFSSTSSQPDHIE
B11: AtTCP3 fused to the Gal4 activation domain (protein, UniProt Q9MAH8 1-391)
chain: MAPDNDHFLDSPSPPLLEMRHHQSATENGGGCGEIVEVQGGHIVRSTGRKDRHSKVCTAKGPRDRRVRLSAPTAIQFYDVQDRLGFDRPSKAVDWLITKAKSAIDDLAQLPPWNPADTLRQHAAAAANAKPRKTKTLISPPPPQPEETEHHRIGEEEDNESSFLPASMDSDSIADTIKSFFPVASTQQSYHHQPPSRGNTQNQDLLRLSLQSFQNGPPFPNQTEPALFSGQSNNQLAFDSSTASWEQSHQSPEFGKIQRLVSWNNVGAAESAGSTGGFVFASPSSLHPVYSQSQLLSQRGPLQSINTPMIRAWFDPHHHHHHHQQSMTTDDLHHHHPYHIPPGIHQSAIPGIAFASSGEFSGFRIPARFQGEQEEHGGDNKPSSASSDSRH
B12: AtTCP4 fused to the Gal4 activation domain (protein, UniProt Q8LPR5 1-420)
chain: MSDDQFHHPPPPSSMRHRSTSDAADGGCGEIVEVQGGHIVRSTGRKDRHSKVCTAKGPRDRRVRLSAHTAIQFYDVQDRLGFDRPSKAVDWLIKKAKTSIDELAELPPWNPADAIRLAAANAKPRRTTAKTQISPSPPPPQQQQQQQQLQFGVGFNGGGAEHPSNNESSFLPPSMDSDSIADTIKSFFPVIGSSTEAPSNHNLMHNYHHQHPPDLLSRTNSQNQDLRLSLQSFPDGPPSLLHHQHHHHTSASASEPTLFYGQSNPLGFDTSSWEQQSSEFGRIQRLVAWNSGGGGGATDTGNGGGFLFAPPTPSTTSFQPVLGQSQQLYSQRGPLQSSYSPMIRAWFDPHHHHQSISTDDLNHHHHLPPPVHQSAIPGIGFASGEFSSGFRIPARFQGQEEEQHDGLTHKPSSASSISRH
B13: AtTCP10 fused to the Gal4 activation domain (protein, UniProt O82277 1-361)
chain: MGLKGYSVGEGGGEIVEVQGGHIIRATGRKDRHSKVFTSKGPRDRRVRLSAHTAIQFYDVQDRLGYDRPSKAVDWLIKKAKTAIDKLELGETTTTTTRQEPVNTKPESPTLVFQRENNDQTQFVAANLDPEDAMKTFFPATTTTNGGGGTNINFQNYPHQDDNNMVSRTTTPPPNLSQDLGLSLHPFQGNNNTVVVPETNNFTTTHFDTFGRISGWNHHDLTMTSSSSSEHQQQEQEERSNGGFMVNHHPHHHHHQPSMMTLLNSQQQQVFLGGQQQQQQRGTLQSSLFPHSFRSWDHHQTTSDHHHHQNQASSMFASSSQYGSHGMMMMQGLSFPNTTRLLHGEEATQPNSSSSPPNSHL
B14: AtTCP16 fused to the Gal4 activation domain (protein, UniProt Q9M1U4 1-165)
chain: MDSKNGINNSQKARRTPKDRHLKIGGRDRRIRIPPSVAPQLFRLTKELGFKTDGETVSWLLQNAEPAIFAATGHGVTTTSNEDIQPNRNFPSYTFNGDNISNNVFPCTVVNTGHRQMVFPVSTMTDHAPSTNYSTISDNYNSTFNGNATASDTTSAATTTATTTV

Key:
[1] = biological target: AP_SAP11-like_PM19^Δ40-56 fused to the Gal4 binding domain ('Candidatus Phytoplasma mali' strain PM19); experiment: two-hybrid
[2] = biological target: AP_SAP11-like_PM19 fused to the Gal4 binding domain ('Candidatus Phytoplasma mali' strain PM19); experiment: two-hybrid

| Binder | binding [1] | binding [2] |
| --- | --- | --- |
| B1 | binds | binds |
| B2 | binds | binds |
| B3 | binds | binds |
| B4 | binds | binds |
| B5 | no binding | binds |
| B6 | binds | binds |
| B7 | binds | binds |
| B8 | binds | binds |
| B9 | binds | binds |
| B10 | binds | binds |
| B11 | no binding | binds |
| B12 | no binding | binds |
| B13 | no binding | binds |
| B14 | – | no binding |
